The other results are listed elsewhere or left out.
Columns and labels:
Assay in all cases: log2 fold change, soluble protein after heating vs DMSO (PISA); higher = thermal stabilisation; K562 lysate, 10 uM; active = over 0.2 and 3.5 SD of the protein, either way, in both replicates (recomputed)
vemurafenib = compound: CCCS(=O)(=O)Nc1ccc(F)c(C(=O)c2c[nH]c3ncc(-c4ccc(Cl)cc4)cc23)c1F [vemurafenib]
How it was run: (§1)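 Values give the log-two fold change in thermal stability against solvent controls, from duplicates. Crude K562 extract at 1 mg/mL protein, made by dounce homogenisation in PBS pH 7.4 with 1 mM MgCl2, was treated with 10 μM compound for 30 min. After 3 min heating across 48°C-58°C, aliquots were pooled, adjusted to 0.5% NP-40 at 4°C and centrifuged at 21,000xg for 90 min. The supernatant was measured by TMTpro 16plex LC-MS/MS with channel sums equalised.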

Sequences of proteins named here, by UniProt entry; tags and fusion partners are left off. A change or cut given only in a name is not applied to a line headed by its entry.
UniProt P06454: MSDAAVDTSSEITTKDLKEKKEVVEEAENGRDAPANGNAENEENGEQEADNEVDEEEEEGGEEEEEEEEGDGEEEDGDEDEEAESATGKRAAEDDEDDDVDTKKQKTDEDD
UniProt P25788: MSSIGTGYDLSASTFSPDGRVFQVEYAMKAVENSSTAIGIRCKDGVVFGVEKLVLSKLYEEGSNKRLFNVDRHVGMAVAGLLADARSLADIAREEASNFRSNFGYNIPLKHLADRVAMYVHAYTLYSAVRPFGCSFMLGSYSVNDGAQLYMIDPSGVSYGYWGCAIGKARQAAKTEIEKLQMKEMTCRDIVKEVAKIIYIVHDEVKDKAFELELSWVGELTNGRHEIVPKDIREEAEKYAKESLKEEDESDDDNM
UniProt P17706: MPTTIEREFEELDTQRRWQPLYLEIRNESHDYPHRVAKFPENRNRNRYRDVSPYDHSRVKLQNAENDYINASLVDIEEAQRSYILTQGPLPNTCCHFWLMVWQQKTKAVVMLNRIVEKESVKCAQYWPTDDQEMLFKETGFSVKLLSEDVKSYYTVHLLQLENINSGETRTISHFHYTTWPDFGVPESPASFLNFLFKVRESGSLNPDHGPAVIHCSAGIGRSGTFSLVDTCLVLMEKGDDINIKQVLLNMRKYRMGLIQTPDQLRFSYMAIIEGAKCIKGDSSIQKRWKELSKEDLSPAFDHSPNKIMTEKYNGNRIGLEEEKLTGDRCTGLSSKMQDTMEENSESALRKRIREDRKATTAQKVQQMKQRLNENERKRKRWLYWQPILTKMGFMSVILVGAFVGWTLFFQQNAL
UniProt Q13200: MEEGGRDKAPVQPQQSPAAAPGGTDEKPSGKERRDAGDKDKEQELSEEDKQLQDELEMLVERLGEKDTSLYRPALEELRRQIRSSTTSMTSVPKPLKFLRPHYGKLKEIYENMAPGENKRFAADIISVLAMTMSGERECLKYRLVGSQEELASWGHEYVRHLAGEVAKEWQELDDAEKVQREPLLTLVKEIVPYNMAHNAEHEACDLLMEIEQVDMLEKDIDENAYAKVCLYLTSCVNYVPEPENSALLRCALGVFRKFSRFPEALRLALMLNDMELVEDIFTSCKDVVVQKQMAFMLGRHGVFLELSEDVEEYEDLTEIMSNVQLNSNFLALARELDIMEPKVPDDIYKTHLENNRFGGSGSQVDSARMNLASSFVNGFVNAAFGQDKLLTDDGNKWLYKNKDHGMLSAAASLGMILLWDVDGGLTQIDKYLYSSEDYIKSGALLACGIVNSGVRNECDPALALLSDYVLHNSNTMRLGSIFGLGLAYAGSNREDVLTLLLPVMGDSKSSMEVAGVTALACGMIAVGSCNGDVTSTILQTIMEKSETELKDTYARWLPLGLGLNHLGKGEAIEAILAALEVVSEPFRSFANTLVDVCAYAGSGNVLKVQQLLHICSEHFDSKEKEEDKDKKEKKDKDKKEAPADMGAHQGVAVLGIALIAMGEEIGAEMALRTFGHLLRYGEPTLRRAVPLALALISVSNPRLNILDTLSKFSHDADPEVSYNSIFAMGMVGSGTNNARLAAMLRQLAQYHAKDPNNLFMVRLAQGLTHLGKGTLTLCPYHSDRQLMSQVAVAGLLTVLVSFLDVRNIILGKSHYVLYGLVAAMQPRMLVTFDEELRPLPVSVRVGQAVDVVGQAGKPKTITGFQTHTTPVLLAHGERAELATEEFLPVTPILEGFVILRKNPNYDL
UniProt Q969U7: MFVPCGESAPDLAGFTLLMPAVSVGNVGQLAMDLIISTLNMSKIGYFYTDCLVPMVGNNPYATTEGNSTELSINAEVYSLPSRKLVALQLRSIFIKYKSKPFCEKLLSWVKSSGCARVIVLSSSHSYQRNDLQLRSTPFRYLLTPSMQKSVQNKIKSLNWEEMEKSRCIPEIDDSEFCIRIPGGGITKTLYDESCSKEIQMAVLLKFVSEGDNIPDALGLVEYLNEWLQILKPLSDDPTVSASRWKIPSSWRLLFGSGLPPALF
UniProt Q12974: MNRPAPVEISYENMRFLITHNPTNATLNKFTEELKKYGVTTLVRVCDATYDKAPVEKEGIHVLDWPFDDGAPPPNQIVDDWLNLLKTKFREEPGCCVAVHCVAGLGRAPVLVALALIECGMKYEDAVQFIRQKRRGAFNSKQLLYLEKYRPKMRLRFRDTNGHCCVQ
UniProt P28074: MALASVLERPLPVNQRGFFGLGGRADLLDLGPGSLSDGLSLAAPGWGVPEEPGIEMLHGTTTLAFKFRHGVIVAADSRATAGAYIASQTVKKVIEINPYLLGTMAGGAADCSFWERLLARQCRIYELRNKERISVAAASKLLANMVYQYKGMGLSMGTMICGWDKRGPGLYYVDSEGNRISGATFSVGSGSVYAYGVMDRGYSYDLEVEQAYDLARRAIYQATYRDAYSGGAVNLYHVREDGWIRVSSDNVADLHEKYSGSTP
UniProt Q7Z6K3: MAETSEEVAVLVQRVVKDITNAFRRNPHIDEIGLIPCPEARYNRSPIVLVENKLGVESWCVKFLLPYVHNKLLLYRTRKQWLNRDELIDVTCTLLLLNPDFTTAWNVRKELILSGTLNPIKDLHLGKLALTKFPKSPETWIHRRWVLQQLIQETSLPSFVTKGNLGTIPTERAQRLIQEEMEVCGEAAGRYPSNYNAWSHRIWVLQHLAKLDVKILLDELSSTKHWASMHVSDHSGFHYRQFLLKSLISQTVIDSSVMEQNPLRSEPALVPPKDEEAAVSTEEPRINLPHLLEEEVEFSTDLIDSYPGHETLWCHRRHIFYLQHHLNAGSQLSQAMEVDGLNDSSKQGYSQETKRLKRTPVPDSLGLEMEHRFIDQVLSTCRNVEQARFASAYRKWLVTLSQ
UniProt O00232: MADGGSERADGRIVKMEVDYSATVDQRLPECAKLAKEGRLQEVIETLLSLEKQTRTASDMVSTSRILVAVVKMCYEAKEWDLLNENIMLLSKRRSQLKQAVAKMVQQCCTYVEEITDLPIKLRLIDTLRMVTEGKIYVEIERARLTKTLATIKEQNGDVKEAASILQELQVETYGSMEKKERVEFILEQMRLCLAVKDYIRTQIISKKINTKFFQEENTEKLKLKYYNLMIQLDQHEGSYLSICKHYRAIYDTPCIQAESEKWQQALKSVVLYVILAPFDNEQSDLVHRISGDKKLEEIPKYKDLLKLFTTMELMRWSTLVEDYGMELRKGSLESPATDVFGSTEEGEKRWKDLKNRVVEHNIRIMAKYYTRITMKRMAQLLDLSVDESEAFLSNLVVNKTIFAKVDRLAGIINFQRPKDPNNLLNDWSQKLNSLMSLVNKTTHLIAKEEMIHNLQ
UniProt Q9UL46, whole entry, looked up: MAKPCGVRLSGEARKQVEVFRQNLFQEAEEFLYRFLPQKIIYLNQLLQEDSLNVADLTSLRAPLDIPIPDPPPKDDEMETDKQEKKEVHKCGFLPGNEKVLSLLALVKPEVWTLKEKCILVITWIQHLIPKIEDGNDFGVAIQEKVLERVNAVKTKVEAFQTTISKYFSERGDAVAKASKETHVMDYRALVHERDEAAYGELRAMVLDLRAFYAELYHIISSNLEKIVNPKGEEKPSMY
UniProt A2A3K4: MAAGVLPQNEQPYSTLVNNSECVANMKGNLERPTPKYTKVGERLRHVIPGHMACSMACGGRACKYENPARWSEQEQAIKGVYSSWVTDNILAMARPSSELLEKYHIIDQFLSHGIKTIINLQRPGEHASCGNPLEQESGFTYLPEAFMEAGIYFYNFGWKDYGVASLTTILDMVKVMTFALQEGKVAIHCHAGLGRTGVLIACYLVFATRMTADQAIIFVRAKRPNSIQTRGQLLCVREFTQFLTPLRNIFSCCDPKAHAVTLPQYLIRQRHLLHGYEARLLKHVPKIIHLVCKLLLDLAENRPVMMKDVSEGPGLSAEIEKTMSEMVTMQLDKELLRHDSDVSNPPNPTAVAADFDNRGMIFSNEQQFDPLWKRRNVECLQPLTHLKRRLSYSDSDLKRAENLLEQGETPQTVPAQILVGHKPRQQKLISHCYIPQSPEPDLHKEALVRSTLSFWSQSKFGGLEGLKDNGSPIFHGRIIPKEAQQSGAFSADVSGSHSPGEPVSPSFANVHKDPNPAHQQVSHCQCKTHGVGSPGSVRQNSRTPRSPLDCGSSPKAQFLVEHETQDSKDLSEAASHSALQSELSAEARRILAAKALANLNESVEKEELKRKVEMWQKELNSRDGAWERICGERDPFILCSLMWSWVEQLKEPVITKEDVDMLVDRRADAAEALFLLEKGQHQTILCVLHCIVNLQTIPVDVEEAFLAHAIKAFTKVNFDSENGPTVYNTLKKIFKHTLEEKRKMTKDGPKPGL
UniProt Q13308: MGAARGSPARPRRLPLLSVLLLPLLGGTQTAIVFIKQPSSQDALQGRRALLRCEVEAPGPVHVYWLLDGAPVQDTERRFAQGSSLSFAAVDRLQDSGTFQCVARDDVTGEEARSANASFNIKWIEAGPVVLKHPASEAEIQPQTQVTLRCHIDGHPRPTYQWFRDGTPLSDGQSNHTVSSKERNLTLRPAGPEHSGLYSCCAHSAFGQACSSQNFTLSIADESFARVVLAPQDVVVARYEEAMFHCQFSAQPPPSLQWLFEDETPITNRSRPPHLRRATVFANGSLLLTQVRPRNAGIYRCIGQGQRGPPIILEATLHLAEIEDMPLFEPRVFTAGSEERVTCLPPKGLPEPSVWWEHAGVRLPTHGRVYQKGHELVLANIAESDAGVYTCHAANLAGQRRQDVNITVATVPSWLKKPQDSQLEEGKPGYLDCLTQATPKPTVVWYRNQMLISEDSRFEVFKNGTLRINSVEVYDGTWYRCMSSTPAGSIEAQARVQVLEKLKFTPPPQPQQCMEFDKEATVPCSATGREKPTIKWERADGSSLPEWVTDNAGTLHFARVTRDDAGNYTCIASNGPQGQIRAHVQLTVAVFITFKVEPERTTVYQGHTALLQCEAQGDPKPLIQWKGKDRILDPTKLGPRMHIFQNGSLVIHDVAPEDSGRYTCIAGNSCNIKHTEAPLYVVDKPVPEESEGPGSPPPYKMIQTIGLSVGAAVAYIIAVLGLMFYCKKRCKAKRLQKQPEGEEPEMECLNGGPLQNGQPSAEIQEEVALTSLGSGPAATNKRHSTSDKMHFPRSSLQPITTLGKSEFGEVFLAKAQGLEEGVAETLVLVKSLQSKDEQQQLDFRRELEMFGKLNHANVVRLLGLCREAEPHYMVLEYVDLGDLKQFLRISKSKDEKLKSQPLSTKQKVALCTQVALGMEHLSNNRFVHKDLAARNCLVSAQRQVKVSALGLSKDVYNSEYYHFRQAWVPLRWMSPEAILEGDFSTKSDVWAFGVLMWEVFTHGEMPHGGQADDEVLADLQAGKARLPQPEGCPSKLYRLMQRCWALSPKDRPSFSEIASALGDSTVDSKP
UniProt P15151: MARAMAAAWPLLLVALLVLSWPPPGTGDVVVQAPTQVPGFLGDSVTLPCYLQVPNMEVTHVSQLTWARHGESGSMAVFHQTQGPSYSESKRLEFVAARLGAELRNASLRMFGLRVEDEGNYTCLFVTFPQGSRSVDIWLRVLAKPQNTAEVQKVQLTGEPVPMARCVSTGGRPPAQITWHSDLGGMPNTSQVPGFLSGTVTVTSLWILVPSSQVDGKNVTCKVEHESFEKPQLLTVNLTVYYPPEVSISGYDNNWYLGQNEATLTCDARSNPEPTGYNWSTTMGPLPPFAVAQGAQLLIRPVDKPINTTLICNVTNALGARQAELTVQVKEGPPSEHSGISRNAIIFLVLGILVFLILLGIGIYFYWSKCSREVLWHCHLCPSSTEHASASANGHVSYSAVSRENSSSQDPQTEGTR
UniProt P40306: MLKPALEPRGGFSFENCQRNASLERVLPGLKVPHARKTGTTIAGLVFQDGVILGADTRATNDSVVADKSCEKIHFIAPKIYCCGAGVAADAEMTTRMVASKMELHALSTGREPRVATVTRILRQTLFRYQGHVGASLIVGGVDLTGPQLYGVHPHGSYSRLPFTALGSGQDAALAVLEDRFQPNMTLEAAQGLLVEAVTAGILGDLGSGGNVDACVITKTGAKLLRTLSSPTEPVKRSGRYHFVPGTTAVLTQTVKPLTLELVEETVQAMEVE
UniProt Q15008: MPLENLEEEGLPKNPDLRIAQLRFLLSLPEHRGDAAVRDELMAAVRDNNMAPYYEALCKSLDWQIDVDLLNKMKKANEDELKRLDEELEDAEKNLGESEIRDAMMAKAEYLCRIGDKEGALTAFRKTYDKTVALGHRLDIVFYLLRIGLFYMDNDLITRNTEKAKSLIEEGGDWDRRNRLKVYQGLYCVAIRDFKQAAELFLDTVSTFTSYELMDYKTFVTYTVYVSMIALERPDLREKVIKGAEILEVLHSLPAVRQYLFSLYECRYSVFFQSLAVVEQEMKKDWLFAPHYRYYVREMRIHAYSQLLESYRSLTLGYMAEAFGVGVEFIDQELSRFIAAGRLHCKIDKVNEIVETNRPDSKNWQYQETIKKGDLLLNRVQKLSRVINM

[1] = compound: CCCS(=O)(=O)Nc1ccc(F)c(C(=O)c2c[nH]c3ncc(Cl)cc23)c1F
How it was run: as §1

barasertib = compound: CCN(CCCOc1ccc2c(Nc3cc(CC(=O)Nc4cccc(F)c4)[nH]n3)ncnc2c1)CCOP(=O)(O)O [barasertib]
How it was run: as §1

[2] = compound: CC[C@@H]1C(=O)N(C)c2cnc(Nc3ccc(C(=O)NC4CCN(C)CC4)cc3OC)nc2N1C1CCCC1
How it was run: as §1

volasertib = compound: CC[C@@H]1C(=O)N(C)c2cnc(Nc3ccc(C(=O)N[C@H]4CC[C@H](N5CCN(CC6CC6)CC5)CC4)cc3OC)nc2N1C(C)C [volasertib]
How it was run: as §1

[3] = compound: CCn1c(C(=O)N(C2CC2)C2CC2)cc2c3c(ncn3C)c(Nc3cc(C)n(C)n3)nc21
How it was run: as §1

[4] = compound: CCn1cc(-c2ccnc3[nH]c(-c4cccc(CN(C)C)c4)cc23)c(-c2ccc(NC(=O)N(C)C)cc2)n1
How it was run: as §1

[5] = compound: CN1CCC(CNc2ccc3ncc(-c4cccc(OC(F)(F)F)c4)n3n2)CC1
How it was run: as §1

saracatinib = compound: CN1CCN(CCOc2cc(OC3CCOCC3)c3c(Nc4c(Cl)ccc5c4OCO5)ncnc3c2)CC1 [saracatinib]
How it was run: as §1

sotrastaurin = compound: CN1CCN(c2nc(C3=C(c4c[nH]c5ccccc45)C(=O)NC3=O)c3ccccc3n2)CC1 [sotrastaurin]
How it was run: as §1

alvocidib = compound: CN1CC[C@H](c2c(O)cc(O)c3c(=O)cc(-c4ccccc4Cl)oc23)[C@H](O)C1 [alvocidib]
How it was run: as §1

Tubastatin A = compound: CN1CCc2c(c3ccccc3n2Cc2ccc(C(=O)NO)cc2)C1 [Tubastatin A]
How it was run: as §1

[6] = compound: CNC(=O)C1=CC=CC=C1NC2=NC(=NC=C2Cl)NC3=C(C=C(C=C3)N4CCOCC4)OC
How it was run: as §1

defactinib = compound: CNC(=O)c1ccc(Nc2ncc(C(F)(F)F)c(NCc3nccnc3N(C)S(C)(=O)=O)n2)cc1 [defactinib]
How it was run: as §1

[7] = compound: CNc1nc(-c2ccc3c(N)n[nH]c3c2)cc(N2C[C@@H](C(=O)NC3CCCCC3)CC[C@H]2C)n1
How it was run: as §1

encorafenib = compound: COC(=O)N[C@@H](C)CNc1nccc(-c2cn(C(C)C)nc2-c2cc(Cl)cc(NS(C)(=O)=O)c2F)n1 [encorafenib]
How it was run: as §1

[8] = compound: COC(=O)[C@H](CCSC)NC(=O)C1=C(C=C(C=C1)NC[C@H](CS)N)C2=CC=CC=C2
How it was run: as §1

alisertib = compound: COc1cc(Nc2ncc3c(n2)-c2ccc(Cl)cc2C(c2c(F)cccc2OC)=NC3)ccc1C(=O)O [alisertib]
How it was run: as §1

[9] = compound: COc1cc2nc(-c3cc(F)ccc3O)nc(N[C@@H]3CNC[C@H]3C(C)(C)O)c2cc1OC
How it was run: as §1

gefitinib = compound: COc1cc2ncnc(Nc3ccc(F)c(Cl)c3)c2cc1OCCCN1CCOCC1 [gefitinib]
How it was run: as §1

Target	log2 fold change (vemurafenib)	log2 fold change [1]	log2 fold change (barasertib)	log2 fold change [2]	log2 fold change (volasertib)	log2 fold change [3]	log2 fold change [4]	log2 fold change [5]	log2 fold change (saracatinib)	log2 fold change (sotrastaurin)	log2 fold change (alvocidib)	log2 fold change (Tubastatin A)	log2 fold change [6]	log2 fold change (defactinib)	log2 fold change [7]	log2 fold change (encorafenib)	log2 fold change [8]	log2 fold change (alisertib)	log2 fold change [9]	log2 fold change (gefitinib)
PTMA (UniProt P06454)	inactive: 0.022	inactive: -0.049	inactive: 0.018	inactive: 0.06	inactive: 0.004	inactive: -0.031	active: 0.569	active: -0.337	inactive: -0.061	inactive: 0.04	inactive: 0.194	inactive: 0.09	inactive: -0.104	inactive: 0.049	inactive: 0.007	inactive: -0.003	inactive: -0.038	inactive: 0.01	inactive: 0.042	inactive: 0.014
PSMA3 (UniProt P25788)	inactive: -0.062	inactive: -0.019	inactive: -0.007	inactive: -0.029	inactive: 0.032	inactive: 0.034	inactive: -0.007	inactive: 0.071	inactive: 0.004	inactive: 0.003	inactive: 0.026	inactive: 0.005	inactive: -0.007	inactive: -0.003	inactive: 0.009	inactive: 0.006	inactive: -0.015	inactive: 0	inactive: 0.001	inactive: -0.006
PTPN2 (UniProt P17706)	inactive: 0.027	inactive: -0.017	inactive: 0.051	inactive: -0.028	inactive: 0	inactive: 0.005	inactive: -0.084	inactive: -0.031	inactive: -0.052	inactive: 0.011	inactive: -0.036	inactive: -0.115	inactive: 0.049	inactive: -0.008	inactive: 0.005	inactive: -0.035	inactive: 0.053	inactive: 0.052	inactive: -0.006	inactive: -0.006
PSMD2 (UniProt Q13200)	inactive: -0.002	inactive: 0.013	inactive: -0.003	inactive: -0.027	inactive: -0.018	inactive: -0.001	inactive: 0.071	inactive: -0.036	inactive: 0.002	inactive: 0.005	inactive: 0.027	inactive: -0.004	inactive: 0.015	inactive: -0.003	inactive: 0.019	inactive: -0.006	inactive: 0.063	inactive: 0.012	inactive: 0	inactive: 0.005
PSMG2 (UniProt Q969U7)	inactive: -0.008	inactive: 0.026	inactive: -0.07	inactive: -0.023	inactive: 0.022	inactive: -0.004	inactive: -0.061	inactive: 0.03	inactive: 0.001	inactive: 0.001	inactive: -0.027	inactive: 0.063	inactive: -0.004	inactive: 0.003	inactive: 0.002	inactive: 0.01	inactive: -0.053	inactive: 0.007	inactive: -0.004	inactive: -0.024
PTP4A2 (UniProt Q12974)	inactive: -0.065	inactive: -0.015	inactive: -0.108	inactive: -0.01	inactive: 0.079	inactive: 0.035	inactive: -0.152	inactive: 0	inactive: -0.096	inactive: -0.039	inactive: 0.101	inactive: -0.013	inactive: 0.057	inactive: 0.043	inactive: 0.05	inactive: 0.014	inactive: -0.02	inactive: -0.01	inactive: -0.004	inactive: -0.111
PSMB5 (UniProt P28074)	inactive: -0.019	inactive: -0.014	inactive: -0.02	inactive: 0.022	inactive: 0.024	inactive: -0.014	inactive: -0.004	inactive: 0.033	inactive: -0.01	inactive: 0.003	inactive: 0.009	inactive: 0.016	inactive: 0.006	inactive: 0.01	inactive: 0.041	inactive: -0.005	inactive: -0.034	inactive: -0.016	inactive: 0.015	inactive: -0.009
PTPN23 (UniProt Q9H3S7)	inactive: -0.008	inactive: 0	inactive: 0.003	inactive: -0.006	inactive: -0.042	inactive: 0.026	inactive: -0.017	inactive: 0.007	inactive: 0.008	inactive: -0.001	inactive: -0.004	inactive: -0.035	inactive: -0.03	inactive: -0.018	inactive: 0.016	inactive: 0.031	inactive: -0.018	inactive: 0.012	inactive: -0.017	inactive: 0.005
PTAR1 (UniProt Q7Z6K3)	inactive: -0.024	inactive: 0.029	inactive: -0.12	inactive: 0.116	inactive: 0.084	inactive: -0.003	inactive: -0.003	inactive: 0.028	inactive: -0.034	inactive: -0.024	inactive: 0.004	inactive: 0.006	inactive: 0.027	inactive: -0.039	inactive: 0.032	inactive: -0.041	inactive: 0.11	inactive: -0.004	inactive: 0.01	inactive: -0.01
PSMD12 (UniProt O00232)	inactive: -0.024	inactive: -0.003	inactive: 0.01	inactive: -0.028	inactive: -0.019	inactive: 0.009	inactive: 0.019	inactive: -0.003	inactive: 0.011	inactive: 0.011	inactive: 0.023	inactive: 0.007	inactive: -0.004	inactive: 0.021	inactive: -0.024	inactive: -0.006	inactive: 0.012	inactive: 0.004	inactive: 0.004	inactive: 0
PSME2 (UniProt Q9UL46)	inactive: 0.012	inactive: -0.012	inactive: -0.038	inactive: 0.012	inactive: 0.02	inactive: 0.001	inactive: -0.034	inactive: 0.156	inactive: -0.003	inactive: -0.002	inactive: -0.12	inactive: 0.034	inactive: -0.013	inactive: -0.027	inactive: -0.032	inactive: 0	inactive: -0.002	inactive: 0.023	inactive: 0.01	inactive: 0.049
PTPDC1 isoform 2 (UniProt A2A3K4)	inactive: 0.313		inactive: -0.05							inactive: 0.011			inactive: 0.045	inactive: 0.165				inactive: 0.068		inactive: 0.11
PTK7 isoform 6 (UniProt Q13308)	inactive: 0.147	inactive: -0.063	inactive: 0.05	inactive: 0.074	inactive: 0.018	inactive: -0.019	inactive: -0.059	inactive: 0.088	inactive: 0.024	inactive: 0.046	inactive: 0.013	inactive: 0.007	inactive: 0.012	inactive: 0.055	inactive: 0.019	inactive: -0.031	inactive: -0.028	inactive: 0.041	inactive: -0.071	inactive: -0.069
PVR (UniProt P15151)	inactive: 0.084	inactive: -0.032	inactive: -0.028	inactive: 0.144	inactive: -0.007	inactive: -0.001	inactive: -0.031	inactive: 0.107	inactive: -0.005	inactive: 0.004	inactive: -0.02	inactive: -0.035	inactive: 0.01	inactive: 0.214	inactive: -0.06	inactive: 0.085	inactive: -0.153	inactive: -0.022	inactive: 0.026	inactive: 0.052
PTPRJ (UniProt Q12913)	inactive: -0.153	inactive: -0.012	inactive: -0.014	inactive: 0.006	inactive: 0.011	inactive: 0.07	inactive: -0.033	inactive: 0.13		inactive: 0.113	inactive: -0.059	inactive: -0.046	inactive: -0.011	inactive: 0.228		inactive: 0.057	inactive: -0.068	inactive: -0.098	inactive: 0.031	inactive: -0.075
PSMB10 (UniProt P40306)	inactive: 0.15	inactive: 0.082	inactive: 0.024	inactive: -0.039	inactive: -0.073	inactive: 0.093	inactive: -0.094	inactive: 0.041	inactive: 0.136	inactive: 0.016	inactive: 0.008	inactive: 0.042		inactive: -0.082	inactive: -0.002	inactive: 0.023	inactive: 0.049		inactive: 0.026	
PSMD6 isoform 4 (UniProt Q15008)	inactive: -0.016	inactive: 0	inactive: -0.033	inactive: 0.003	inactive: -0.014	inactive: 0.009	inactive: 0.001	inactive: -0.022	inactive: 0.003	inactive: -0.002	inactive: 0.009	inactive: 0.021	inactive: -0.006	inactive: -0.001	inactive: 0.004	inactive: 0	inactive: 0.022	inactive: 0.014	inactive: 0.009	inactive: 0.011

Reference: the supplement of paper PMC10849652
